# Data published in the supplement of paper PMC11732987, “Enantioselective OTUD7B fragment discovery through chemoproteomics screening and high-throughput optimisation” (Communications Chemistry, 2025).
# Protein sequences, listed by entry. Tags and fused reporters are not part of them. Lines headed by an entry give the natural chain unless they say otherwise; changes in a name come on top. Residues count along the entry.
# UniProt Q9UMN6: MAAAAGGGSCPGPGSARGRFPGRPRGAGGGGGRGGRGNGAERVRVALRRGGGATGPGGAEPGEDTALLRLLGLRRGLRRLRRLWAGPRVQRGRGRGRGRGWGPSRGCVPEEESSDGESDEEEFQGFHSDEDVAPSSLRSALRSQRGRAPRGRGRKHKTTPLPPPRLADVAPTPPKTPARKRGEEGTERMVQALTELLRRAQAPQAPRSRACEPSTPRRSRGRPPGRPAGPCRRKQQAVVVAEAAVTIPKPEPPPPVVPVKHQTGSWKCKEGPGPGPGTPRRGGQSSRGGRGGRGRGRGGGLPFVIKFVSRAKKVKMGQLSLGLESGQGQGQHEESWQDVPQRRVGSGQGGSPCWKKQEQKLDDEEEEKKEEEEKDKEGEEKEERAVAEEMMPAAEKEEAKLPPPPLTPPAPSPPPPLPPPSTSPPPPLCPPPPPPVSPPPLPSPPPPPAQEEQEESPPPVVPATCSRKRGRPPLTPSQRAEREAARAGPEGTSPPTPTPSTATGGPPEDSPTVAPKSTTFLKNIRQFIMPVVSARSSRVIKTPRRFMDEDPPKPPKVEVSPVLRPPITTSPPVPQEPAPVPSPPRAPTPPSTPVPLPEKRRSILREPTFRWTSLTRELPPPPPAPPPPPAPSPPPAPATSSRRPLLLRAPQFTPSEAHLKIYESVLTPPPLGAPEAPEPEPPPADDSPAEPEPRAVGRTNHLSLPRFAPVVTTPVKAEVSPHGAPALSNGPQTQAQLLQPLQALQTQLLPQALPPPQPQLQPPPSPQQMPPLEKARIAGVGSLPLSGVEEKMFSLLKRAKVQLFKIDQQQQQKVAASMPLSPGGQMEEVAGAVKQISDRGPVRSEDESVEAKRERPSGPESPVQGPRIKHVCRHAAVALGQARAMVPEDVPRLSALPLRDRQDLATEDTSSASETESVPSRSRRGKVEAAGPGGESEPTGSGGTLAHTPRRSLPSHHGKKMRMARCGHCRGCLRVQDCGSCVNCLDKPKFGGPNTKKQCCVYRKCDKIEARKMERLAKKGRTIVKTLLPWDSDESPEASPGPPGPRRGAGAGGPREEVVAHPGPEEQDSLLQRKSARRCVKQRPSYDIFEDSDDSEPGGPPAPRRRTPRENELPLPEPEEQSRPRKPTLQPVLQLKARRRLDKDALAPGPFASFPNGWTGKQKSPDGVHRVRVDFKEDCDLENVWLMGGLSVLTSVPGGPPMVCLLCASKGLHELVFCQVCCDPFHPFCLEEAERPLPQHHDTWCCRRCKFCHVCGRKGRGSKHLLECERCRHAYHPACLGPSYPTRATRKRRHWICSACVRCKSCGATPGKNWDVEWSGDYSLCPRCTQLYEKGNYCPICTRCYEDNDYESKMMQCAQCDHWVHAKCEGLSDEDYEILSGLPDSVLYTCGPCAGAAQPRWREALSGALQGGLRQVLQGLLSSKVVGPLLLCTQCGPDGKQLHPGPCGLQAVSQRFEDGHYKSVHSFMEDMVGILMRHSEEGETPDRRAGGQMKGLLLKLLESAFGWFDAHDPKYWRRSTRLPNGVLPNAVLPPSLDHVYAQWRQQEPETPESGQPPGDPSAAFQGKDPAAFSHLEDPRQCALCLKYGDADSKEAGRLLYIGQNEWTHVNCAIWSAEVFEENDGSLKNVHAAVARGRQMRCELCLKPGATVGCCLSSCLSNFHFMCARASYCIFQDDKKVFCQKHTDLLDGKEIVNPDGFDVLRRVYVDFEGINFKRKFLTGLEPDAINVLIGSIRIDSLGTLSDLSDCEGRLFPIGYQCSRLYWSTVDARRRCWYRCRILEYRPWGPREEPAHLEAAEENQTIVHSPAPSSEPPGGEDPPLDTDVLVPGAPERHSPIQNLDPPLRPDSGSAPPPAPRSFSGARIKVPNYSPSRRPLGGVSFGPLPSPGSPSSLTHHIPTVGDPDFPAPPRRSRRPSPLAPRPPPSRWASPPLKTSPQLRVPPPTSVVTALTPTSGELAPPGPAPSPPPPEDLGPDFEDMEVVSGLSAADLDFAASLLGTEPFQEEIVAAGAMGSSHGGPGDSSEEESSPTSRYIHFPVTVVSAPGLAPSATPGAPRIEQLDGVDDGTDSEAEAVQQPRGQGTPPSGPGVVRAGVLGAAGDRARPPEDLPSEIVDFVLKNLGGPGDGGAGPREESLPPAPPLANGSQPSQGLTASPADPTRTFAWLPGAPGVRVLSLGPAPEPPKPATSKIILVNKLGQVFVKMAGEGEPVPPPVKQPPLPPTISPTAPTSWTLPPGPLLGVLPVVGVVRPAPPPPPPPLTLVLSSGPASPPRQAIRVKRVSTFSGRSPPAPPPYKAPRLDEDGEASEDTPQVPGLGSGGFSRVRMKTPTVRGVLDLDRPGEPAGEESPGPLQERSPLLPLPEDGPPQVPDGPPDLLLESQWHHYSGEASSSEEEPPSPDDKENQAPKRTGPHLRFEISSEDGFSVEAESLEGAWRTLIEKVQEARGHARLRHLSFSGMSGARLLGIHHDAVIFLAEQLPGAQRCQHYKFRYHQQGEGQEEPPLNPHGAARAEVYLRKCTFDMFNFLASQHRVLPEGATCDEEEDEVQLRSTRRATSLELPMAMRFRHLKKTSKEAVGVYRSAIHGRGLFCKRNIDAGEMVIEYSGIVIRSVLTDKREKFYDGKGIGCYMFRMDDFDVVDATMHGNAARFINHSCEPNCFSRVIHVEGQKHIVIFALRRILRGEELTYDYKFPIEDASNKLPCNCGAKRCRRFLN
# UniProt Q96II8: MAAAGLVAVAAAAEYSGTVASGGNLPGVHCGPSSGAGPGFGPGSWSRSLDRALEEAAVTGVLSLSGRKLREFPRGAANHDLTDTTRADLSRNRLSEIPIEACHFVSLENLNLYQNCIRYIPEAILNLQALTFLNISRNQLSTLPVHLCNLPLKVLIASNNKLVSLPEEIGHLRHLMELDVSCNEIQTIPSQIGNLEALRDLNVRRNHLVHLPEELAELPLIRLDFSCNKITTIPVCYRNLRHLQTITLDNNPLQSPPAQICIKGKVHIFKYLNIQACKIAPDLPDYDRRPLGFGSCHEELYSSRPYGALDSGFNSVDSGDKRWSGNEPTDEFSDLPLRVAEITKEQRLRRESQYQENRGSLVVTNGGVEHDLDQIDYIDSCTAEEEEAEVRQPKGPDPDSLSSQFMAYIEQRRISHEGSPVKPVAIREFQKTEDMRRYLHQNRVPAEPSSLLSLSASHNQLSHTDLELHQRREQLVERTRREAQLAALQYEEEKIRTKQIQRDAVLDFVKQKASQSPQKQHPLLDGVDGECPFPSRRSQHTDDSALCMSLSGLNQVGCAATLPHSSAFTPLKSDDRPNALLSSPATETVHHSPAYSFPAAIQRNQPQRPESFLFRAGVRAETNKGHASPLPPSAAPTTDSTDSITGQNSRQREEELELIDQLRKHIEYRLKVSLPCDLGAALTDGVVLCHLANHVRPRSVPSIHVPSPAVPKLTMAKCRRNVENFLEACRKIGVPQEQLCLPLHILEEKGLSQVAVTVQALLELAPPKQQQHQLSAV
# UniProt P48059: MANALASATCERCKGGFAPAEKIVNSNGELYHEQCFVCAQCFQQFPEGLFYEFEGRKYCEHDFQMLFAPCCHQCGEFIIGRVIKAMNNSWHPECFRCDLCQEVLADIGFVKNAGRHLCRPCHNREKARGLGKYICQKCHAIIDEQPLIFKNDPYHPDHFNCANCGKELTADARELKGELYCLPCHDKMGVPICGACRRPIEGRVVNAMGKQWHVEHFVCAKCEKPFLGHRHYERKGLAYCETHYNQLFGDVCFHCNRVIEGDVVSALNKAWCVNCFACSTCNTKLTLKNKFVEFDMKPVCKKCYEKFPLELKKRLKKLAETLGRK
# UniProt Q9UPQ0: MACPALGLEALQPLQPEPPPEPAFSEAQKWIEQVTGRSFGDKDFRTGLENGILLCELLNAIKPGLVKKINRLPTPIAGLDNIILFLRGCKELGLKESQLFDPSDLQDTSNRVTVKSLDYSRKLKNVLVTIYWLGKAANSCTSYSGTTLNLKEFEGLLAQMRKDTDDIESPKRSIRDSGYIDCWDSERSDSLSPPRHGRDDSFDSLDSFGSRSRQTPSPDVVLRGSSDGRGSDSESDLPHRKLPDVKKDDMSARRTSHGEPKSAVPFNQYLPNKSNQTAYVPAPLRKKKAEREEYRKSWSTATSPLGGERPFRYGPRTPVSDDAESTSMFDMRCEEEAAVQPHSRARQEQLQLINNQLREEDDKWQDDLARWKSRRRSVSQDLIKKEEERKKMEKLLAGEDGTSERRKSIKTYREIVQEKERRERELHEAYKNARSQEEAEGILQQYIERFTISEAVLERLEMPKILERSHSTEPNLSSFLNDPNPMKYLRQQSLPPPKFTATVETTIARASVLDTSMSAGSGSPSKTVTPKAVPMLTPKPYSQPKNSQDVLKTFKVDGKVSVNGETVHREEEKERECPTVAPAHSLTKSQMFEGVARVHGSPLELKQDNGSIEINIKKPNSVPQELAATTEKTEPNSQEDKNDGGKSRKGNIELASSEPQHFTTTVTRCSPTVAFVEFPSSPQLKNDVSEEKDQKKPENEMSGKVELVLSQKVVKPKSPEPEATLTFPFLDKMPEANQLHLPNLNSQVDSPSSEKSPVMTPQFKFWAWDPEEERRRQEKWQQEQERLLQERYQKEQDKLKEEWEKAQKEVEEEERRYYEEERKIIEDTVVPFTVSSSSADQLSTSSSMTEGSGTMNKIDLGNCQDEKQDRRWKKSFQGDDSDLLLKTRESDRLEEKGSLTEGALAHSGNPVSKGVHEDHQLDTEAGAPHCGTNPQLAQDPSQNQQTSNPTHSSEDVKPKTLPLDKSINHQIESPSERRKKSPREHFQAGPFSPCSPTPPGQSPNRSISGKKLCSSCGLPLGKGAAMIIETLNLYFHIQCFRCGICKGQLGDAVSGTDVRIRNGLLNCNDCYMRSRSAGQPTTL
# UniProt Q9Y2U8: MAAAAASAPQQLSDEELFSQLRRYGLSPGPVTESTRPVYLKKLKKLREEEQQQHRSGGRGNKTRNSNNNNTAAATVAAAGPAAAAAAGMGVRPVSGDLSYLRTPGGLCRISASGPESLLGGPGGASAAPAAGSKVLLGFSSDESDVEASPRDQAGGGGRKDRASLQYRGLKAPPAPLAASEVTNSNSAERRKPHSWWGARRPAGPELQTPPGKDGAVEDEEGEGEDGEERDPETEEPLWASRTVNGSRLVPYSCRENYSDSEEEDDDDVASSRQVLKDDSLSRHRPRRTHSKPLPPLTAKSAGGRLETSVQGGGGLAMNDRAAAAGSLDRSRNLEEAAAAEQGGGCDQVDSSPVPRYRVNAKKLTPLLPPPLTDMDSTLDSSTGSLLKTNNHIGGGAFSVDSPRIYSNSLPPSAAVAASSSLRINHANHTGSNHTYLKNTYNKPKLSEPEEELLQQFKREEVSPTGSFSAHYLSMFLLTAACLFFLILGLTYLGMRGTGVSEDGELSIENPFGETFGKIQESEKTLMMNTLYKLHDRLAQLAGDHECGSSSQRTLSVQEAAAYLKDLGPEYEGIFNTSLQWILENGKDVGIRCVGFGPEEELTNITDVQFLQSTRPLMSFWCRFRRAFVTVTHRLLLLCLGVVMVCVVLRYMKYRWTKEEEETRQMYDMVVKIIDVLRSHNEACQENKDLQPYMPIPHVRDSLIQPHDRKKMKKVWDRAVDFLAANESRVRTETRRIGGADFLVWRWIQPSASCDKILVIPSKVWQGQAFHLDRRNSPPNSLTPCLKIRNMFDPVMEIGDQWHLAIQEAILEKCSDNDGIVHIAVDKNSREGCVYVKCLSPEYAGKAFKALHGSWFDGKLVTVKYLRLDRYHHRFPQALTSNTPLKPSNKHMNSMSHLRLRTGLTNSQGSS
# UniProt O14686, 372-397: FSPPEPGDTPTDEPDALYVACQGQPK
# UniProt Q96EK5: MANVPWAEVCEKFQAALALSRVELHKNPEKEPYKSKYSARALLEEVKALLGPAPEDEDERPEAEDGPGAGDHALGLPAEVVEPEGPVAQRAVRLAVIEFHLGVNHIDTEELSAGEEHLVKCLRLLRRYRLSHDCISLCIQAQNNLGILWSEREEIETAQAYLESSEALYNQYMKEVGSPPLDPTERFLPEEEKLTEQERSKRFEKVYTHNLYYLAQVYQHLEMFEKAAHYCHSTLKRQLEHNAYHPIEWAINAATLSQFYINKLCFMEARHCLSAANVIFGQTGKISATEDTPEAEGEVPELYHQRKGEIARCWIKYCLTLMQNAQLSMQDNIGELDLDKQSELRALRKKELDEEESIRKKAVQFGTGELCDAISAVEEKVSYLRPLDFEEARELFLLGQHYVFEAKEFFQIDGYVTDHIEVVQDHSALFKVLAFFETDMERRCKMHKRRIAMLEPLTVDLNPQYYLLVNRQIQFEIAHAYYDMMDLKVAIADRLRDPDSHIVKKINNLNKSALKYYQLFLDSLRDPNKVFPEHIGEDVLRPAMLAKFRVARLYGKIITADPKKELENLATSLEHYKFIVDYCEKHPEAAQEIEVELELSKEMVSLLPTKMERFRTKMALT
# UniProt P09382: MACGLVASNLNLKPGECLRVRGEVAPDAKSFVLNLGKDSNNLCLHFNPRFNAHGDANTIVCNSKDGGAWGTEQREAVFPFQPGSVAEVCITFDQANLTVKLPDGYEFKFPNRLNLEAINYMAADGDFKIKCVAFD
# The other results are listed elsewhere or left out. The data scatter; read single values as rough.
# Tests used:
# [1] = compound: ClCC(=O)N[C@@H]1CCCc2ccccc12; assay: log2 mean competition ratio of IA-DTB cysteine labelling (DMSO/compound) (log2 ratio); higher = stronger cysteine engagement by compound; details: treatment time: 4 h, cell line lysate: HEK293T
# Experimental: (§1)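 IA-DTB competitive cysteine chemoproteomics in HEK293T RIPA lysate. Lysates were treated with compound 29 or 30 at 50 or 200 µM for 4 h, then IA-DTB (500 µM, 1 h), trypsin-digested, NeutrAvidin-enriched and analysed by diaPASEF. Competition ratio = intensity DMSO / intensity compound (n=4 treated, n=64 DMSO); binding: mean log2 CR ≥ 1 and p ≤ 0.05 plus QC filters. Target is the cysteine site.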
# [2] = compound: ClCC(=O)N[C@H]1CCCc2ccccc12; assay: as above; details: treatment time: 4 h, cell line lysate: HEK293T
# Experimental: as §1
Target,log2 mean competition ratio ([1]; 50 µM),log2 mean competition ratio ([1]; 200 µM),log2 mean competition ratio ([2]; 50 µM),log2 mean competition ratio ([2]; 200 µM)
KNL1 C2216 (UniProt Q8NG31),0.0264,-0.0964,0.301,-0.136
KSR1 C41 (UniProt Q8IVT5),0.327,0.348,0.142,0.0301
KMT2B C353 (UniProt Q9UMN6),0.0504,0.242,-0.0626,0.206
LRCH3 C227 (UniProt Q96II8),-0.123,0.144,0.0835,0.188
KPNA4 C57 (UniProt O00629),-0.293,-0.109,-0.66,-0.0941
LIMS1 C138 (UniProt P48059),0.332,-0.178,0.157,-0.0327
KIFC1 C95 (UniProt Q9BW19),0.295,-0.0686,0.221,0.0761
LRP1 C40 (UniProt Q07954),0.0944,0.374,-0.371,0.0857
KLC4 C53 (UniProt Q9NSK0),0.227,0.0351,-0.149,-0.315
KNTC1 C2099 (UniProt P50748),-0.196,-0.357,-0.43,-0.232
LIMCH1 C577 (UniProt Q9UPQ0),0.028,-0.109,-0.148,-0.188
KIFAP3 C78 (UniProt Q92845),-0.235,0.198,-0.0627,0.00677
LATS2 C813 (UniProt Q9NRM7),-0.316,-0.164,-0.467,0.109
KIF5B C421 (UniProt P33176),0.00779,-0.193,0.0306,-0.164
KLHL7 C378 (UniProt Q8IXQ5),-0.269,-0.203,-0.187,-0.602
LLGL1 C947 (UniProt Q15334),0.142,0.0453,-0.143,0.0987
KLHL7 C259 (UniProt Q8IXQ5),0.052,0.0359,0.374,0.0362
KIT C691 (UniProt P10721),-0.188,-0.0408,-0.424,0.0969
LEMD3 C108 (UniProt Q9Y2U8),-0.0369,0.0516,0.213,0.18
LEMD3 C785 (UniProt Q9Y2U8),-0.0194,0.198,0.132,0.226
KMT2D C392 (UniProt O14686),-0.258,0.268,0.0512,-0.0244
LEMD3 C814 (UniProt Q9Y2U8),-0.133,-0.0643,-0.7,-0.222
KNTC1 C683 (UniProt P50748),0.262,1.12,0.37,0.681
KIFBP C583 (UniProt Q96EK5),-0.0918,-0.437,-0.0081,-0.316
"LARP1B C838, A0A3B3ISF0",0.486,0.0425,-0.255,0.0744
LIN7C C47 (UniProt Q9NUP9),0.22,0.00976,0.129,0.0663
LGALS1 C61 (UniProt P09382),-0.105,-0.508,0.0622,-0.646
KMT2D C369 (UniProt O14686),-0.114,0.0988,-0.118,0.0041
LRBA C982,-0.16,-0.103,-0.522,-0.217
LAP3 C462 (UniProt P28838),0.481,0.157,0.369,0.101
